# Laboratory results as given in patent publication US20230175069A1, “COMPOSITIONS AND METHODS FOR DETECTING GENE FUSIONS OF ESR1 AND CCDC170 FOR DETERMINING INCREASED RESISTANCE TO ENDOCRINE THERAPY AND FOR CANCER TREATMENT” (UNIVERSITY OF PITTSBURGH-OF THE COMMONWEAL TH SYSTEM OF …, priority 2020, published 2023).
# Test system: HER2
# Details: HCC1428 cells
smiles,measurement,value
C[C@]12CC[C@@H]3c4ccc(O)cc4C[C@@H](CCCCCCCCC[S+]([O-])CCCC(F)(F)C(F)(F)F)[C@H]3[C@@H]1CCC2O (stereo partly shown) [fulvestrant],HER2 protein level (Western blot),upregulated
